This note sets out measurements from paper PMC10421354.

Test [1] addresses T1, MPK3-GFP (Arabidopsis thaliana) (UniProt Q39023).
T1 sequence: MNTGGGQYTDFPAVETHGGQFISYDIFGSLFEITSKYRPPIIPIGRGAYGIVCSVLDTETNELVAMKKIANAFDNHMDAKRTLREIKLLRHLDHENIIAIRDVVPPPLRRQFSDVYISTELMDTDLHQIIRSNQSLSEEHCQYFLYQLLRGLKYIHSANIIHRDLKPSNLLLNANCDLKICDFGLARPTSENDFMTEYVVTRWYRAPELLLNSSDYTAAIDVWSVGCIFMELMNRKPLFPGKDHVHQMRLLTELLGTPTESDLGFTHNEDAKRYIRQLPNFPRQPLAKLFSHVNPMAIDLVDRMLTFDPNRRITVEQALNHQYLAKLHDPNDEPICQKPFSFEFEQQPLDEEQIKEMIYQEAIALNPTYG
Nature of the test: co-IP; NSP2-MYC co-expressed with MPK3-GFP in N. benthamiana; protein extract incubated with anti-GFP nanobody agarose beads; detected by anti-GFP and anti-MYC blots.

Test [2] addresses T2, nVenus-NSP2 (Arabidopsis thaliana) (UniProt O49326).
T2 sequence: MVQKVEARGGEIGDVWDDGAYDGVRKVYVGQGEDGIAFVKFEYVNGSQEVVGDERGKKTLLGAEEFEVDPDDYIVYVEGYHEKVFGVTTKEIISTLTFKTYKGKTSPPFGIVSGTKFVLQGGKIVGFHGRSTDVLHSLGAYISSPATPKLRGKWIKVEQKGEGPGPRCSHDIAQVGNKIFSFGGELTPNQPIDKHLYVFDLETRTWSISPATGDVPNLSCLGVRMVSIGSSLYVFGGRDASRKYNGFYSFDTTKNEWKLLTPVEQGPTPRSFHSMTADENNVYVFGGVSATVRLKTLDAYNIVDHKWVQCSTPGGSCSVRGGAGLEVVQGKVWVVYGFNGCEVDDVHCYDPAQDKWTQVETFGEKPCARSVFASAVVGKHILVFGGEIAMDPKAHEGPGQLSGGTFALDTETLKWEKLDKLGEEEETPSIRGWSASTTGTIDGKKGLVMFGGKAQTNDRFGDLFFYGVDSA
The test is described as follows: split reporter; BiFC; cCFP-MPK3 and nVenus-NSP2 co-infiltrated in N. benthamiana leaves; signal read by confocal microscopy 48-72 h after infiltration.

Results are given in words; binding and its absence hold for the method and conditions named. Binding seen in cells or lysates may run through a third protein. Some entries that bind do so weakly or less than the wild type. Where a sequence is shown, tags or fusion partners need not be part of it.

B1: NSP2-MYC (protein, UniProt O49326 1-471)
chain: T2 sequence
As to B1, in test [1], the binding result is reported as “binds”.

B2: cCFP-MPK3 (protein, UniProt Q39023 1-370)
chain: T1 sequence
For B2, the binding result in test [2] is “binds”.
